Data published in the supplement of paper PMC10849652.
The list shows a part of the results. Residues, ends and D or L forms follow the SMILES beside them. *: point of attachment. Cbz = O=C(OCc1ccccc1)*

Protein sequences, listed by entry. Tags and fused reporters are not part of them. Lines headed by an entry give the natural chain unless they say otherwise; changes in a name come on top.
UniProt Q9UGJ0: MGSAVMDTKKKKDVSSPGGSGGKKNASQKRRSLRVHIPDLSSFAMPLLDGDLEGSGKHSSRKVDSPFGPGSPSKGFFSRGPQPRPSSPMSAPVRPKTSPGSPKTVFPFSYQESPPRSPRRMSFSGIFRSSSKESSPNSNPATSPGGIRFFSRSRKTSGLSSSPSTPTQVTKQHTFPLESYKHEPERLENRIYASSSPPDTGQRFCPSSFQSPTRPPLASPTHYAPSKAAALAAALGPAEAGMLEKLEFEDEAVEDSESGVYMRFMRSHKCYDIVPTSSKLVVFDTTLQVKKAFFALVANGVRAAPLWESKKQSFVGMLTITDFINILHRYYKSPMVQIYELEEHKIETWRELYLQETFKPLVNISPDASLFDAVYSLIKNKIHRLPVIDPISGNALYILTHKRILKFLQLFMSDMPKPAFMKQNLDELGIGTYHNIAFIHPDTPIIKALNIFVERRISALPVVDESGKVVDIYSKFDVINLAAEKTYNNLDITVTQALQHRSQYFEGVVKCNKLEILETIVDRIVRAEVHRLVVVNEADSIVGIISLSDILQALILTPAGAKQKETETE
UniProt P41743, whole entry, looked up: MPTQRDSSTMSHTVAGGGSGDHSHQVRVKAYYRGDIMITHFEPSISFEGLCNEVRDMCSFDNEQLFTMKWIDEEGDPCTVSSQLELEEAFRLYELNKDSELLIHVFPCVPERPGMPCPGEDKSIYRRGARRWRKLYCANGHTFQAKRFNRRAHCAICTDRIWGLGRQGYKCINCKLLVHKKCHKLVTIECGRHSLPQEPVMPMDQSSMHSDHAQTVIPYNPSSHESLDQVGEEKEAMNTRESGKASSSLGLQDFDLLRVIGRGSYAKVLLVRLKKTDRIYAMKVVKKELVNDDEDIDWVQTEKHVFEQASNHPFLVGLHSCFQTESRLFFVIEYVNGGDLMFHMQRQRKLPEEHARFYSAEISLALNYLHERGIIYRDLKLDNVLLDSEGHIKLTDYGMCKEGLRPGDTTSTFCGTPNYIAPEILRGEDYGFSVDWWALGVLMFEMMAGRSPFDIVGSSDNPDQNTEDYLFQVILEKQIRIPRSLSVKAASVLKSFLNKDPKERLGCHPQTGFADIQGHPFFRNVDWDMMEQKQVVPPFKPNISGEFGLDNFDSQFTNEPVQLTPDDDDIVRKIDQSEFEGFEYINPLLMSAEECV
UniProt O75170: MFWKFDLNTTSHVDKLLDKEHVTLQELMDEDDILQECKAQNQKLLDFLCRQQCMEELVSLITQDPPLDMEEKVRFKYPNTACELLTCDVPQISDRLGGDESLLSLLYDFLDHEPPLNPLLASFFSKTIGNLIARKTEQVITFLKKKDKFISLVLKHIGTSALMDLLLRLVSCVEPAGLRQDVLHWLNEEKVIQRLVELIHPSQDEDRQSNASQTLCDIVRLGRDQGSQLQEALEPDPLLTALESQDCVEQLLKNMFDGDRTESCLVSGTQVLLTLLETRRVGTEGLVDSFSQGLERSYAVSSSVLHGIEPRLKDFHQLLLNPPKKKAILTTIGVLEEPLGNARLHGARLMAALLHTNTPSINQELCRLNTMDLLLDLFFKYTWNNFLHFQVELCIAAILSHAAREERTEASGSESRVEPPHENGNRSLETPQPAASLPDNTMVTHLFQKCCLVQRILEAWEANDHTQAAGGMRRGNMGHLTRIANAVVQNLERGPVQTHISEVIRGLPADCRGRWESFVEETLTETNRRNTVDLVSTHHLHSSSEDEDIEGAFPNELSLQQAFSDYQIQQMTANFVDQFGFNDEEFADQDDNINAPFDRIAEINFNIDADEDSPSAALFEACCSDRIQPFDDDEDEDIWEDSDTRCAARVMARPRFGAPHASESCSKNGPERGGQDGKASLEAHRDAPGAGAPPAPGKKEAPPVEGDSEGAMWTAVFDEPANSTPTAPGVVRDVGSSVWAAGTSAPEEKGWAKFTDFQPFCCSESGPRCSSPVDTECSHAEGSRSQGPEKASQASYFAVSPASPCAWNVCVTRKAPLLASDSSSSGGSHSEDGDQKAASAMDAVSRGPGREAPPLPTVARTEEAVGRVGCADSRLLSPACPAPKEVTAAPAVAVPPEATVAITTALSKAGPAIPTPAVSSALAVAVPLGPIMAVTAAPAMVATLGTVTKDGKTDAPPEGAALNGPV
UniProt Q92733: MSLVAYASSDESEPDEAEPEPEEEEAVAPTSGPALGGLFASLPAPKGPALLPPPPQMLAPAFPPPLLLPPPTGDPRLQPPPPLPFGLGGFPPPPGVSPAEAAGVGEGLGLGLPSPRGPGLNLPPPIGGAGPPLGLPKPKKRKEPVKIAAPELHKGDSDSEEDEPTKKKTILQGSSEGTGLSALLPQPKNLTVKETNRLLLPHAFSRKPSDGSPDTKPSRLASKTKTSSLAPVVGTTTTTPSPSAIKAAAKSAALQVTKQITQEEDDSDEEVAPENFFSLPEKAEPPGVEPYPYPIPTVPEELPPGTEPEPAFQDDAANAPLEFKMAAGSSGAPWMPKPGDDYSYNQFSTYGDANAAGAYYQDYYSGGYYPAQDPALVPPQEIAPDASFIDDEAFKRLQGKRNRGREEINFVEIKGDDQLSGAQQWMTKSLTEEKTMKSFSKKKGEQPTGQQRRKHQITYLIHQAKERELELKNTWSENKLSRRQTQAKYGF
UniProt O14744, whole entry, looked up: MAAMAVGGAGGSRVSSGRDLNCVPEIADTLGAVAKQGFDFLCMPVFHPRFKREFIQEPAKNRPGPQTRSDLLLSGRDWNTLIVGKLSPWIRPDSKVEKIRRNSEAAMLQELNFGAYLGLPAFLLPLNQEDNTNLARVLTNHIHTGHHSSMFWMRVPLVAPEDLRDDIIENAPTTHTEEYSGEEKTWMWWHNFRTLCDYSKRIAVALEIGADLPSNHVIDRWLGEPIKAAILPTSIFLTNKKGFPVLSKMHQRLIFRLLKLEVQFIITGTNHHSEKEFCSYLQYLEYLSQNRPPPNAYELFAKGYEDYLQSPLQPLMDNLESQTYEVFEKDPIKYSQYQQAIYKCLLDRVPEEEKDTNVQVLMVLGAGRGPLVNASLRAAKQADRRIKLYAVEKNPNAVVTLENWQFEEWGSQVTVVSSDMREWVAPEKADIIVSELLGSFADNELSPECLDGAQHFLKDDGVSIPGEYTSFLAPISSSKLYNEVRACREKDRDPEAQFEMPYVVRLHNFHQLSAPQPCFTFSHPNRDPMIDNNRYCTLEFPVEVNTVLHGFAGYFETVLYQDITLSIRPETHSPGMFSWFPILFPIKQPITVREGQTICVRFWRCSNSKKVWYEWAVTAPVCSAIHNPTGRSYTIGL
UniProt Q6IN85: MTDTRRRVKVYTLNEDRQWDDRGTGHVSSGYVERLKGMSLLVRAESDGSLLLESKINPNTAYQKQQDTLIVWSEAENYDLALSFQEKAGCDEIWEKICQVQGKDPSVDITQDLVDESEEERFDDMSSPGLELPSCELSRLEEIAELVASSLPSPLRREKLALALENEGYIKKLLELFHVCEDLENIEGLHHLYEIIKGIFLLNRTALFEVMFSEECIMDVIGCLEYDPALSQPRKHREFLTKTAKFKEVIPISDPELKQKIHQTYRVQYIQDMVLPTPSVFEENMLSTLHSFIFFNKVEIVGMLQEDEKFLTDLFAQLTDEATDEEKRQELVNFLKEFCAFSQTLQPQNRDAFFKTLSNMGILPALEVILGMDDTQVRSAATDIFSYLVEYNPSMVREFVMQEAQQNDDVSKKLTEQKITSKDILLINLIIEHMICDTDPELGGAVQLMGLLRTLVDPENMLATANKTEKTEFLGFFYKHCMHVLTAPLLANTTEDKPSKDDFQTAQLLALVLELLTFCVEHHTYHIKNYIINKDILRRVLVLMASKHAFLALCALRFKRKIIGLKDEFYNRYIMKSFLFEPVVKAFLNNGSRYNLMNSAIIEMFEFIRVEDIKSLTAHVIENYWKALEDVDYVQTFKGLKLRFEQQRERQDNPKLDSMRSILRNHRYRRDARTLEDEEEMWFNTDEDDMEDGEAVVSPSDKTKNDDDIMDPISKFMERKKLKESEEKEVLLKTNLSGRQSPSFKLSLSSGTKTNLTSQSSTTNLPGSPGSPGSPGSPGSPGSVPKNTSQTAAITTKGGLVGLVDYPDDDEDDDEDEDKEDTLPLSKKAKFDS
UniProt Q9H875: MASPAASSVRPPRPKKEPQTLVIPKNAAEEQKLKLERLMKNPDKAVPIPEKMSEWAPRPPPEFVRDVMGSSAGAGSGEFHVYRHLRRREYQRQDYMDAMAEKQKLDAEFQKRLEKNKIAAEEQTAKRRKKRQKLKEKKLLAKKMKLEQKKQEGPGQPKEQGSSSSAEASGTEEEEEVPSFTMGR
UniProt O60927: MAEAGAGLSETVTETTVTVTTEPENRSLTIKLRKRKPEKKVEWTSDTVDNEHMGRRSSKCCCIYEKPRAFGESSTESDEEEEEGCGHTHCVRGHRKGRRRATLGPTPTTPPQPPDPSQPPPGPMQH
UniProt P14314: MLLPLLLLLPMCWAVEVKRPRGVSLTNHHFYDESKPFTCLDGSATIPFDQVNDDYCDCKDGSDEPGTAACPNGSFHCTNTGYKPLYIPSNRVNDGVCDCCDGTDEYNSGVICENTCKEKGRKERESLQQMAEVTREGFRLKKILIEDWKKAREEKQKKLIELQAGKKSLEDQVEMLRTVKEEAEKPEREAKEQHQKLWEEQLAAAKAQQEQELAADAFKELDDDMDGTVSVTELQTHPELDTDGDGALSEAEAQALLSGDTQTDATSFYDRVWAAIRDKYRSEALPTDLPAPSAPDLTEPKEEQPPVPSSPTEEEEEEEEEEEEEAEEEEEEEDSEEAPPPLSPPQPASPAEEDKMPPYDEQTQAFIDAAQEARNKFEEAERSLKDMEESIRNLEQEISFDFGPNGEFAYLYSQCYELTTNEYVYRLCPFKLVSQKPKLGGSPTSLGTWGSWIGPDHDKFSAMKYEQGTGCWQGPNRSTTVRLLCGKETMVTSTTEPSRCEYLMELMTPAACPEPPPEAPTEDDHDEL
UniProt Q96C90: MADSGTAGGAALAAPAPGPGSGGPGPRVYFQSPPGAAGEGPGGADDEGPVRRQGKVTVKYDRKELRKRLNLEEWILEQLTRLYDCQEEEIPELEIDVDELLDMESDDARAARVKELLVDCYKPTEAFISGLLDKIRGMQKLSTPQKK
UniProt P36873, whole entry, looked up: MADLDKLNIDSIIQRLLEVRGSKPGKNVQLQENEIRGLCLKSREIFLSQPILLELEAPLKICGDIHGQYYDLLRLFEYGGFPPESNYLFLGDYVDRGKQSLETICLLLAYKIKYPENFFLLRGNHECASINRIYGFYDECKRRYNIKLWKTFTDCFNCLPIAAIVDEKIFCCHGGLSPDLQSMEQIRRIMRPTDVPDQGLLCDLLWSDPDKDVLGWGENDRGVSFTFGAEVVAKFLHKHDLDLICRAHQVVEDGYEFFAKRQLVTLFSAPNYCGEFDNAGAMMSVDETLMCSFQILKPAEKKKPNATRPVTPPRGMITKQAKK
UniProt P30153, whole entry, looked up: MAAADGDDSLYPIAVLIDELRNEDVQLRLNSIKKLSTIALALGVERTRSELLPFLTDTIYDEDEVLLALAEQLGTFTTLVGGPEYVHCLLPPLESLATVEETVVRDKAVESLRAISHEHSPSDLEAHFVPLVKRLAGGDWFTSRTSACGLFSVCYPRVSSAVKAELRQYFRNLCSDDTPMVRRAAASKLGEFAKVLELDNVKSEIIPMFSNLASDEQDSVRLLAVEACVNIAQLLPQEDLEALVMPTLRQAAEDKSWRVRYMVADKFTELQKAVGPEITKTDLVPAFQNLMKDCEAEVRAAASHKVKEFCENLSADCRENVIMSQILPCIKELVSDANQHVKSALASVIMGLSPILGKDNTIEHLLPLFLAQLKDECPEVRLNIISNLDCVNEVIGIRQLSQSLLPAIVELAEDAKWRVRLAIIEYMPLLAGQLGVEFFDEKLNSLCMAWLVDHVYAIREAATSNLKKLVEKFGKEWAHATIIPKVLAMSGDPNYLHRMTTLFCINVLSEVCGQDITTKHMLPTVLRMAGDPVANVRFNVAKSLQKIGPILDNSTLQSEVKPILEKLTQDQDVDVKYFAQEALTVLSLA
UniProt Q99873, whole entry, looked up: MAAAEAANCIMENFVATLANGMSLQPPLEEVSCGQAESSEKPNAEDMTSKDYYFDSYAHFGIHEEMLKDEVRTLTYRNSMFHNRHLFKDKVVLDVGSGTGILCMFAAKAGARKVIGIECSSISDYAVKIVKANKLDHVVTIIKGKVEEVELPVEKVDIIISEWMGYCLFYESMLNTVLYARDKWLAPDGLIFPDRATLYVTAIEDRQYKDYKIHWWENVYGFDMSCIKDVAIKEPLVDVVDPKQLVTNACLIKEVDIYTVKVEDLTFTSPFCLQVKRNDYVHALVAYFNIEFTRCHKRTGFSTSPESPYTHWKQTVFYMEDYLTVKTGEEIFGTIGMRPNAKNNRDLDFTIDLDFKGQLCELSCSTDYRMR

Key:
Test in all cases: log2 fold change, soluble protein after heating vs DMSO (PISA); higher = thermal stabilisation; K562 cells, 10 uM, 30 min; active = over 0.2 and 3.5 SD of the protein, either way, in both replicates (recomputed)
erlotinib = compound: C#Cc1cccc(Nc2ncnc3cc(OCCOC)c(OCCOC)cc23)c1 [erlotinib]
Method in brief: (§1)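 K562 cells at 2×10^6 cells/mL were given 10 μM compound for 30 min. Aliquots then went through 3 min of heating across 48°C-58°C, were pooled, and were extracted in PBS with 0.5% NP-40 at 4°C, and the supernatant after 21,000xg for 90 min was quantified by TMTpro 16plex LC-MS/MS with channel sums equalised. Thermal stability relative to control samples, from duplicates, is given as log2 fold change.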

[1] = compound: C/C(=N\NC(=O)C1=CC(=CC=C1)S(=O)(=O)N2CCOCC2)/C3=C(C=CC(=C3)Cl)O
Method in brief: as §1

[2] = compound: C1=CC(=C(C=C1Cl)C2=NC3=NC=CN=C3C(=N2)NC4=CC=NC=C4)F
Method in brief: as §1

[3] = compound: C1=CC(=CC=C1C2=NC3=C(N2)C=C(C=C3)C(=O)N)OC4=CC=C(C=C4)Cl
Method in brief: as §1

[4] = compound: C1=CC2=C(C=CC(=C2)/C=C\3/C(=O)NC(=NCC4=CC=CS4)S3)N=C1
Method in brief: as §1

[5] = compound: C1=CC2=NC=CN=C2C=C1/C=C/3\C(=O)NC(=O)S3
Method in brief: as §1

[6] = compound: C1=CC=C(C=C1)C2=NC(=C(N2)C3=CC=NC=C3)C4=CC(=C(C=C4)Cl)O
Method in brief: as §1

[7] = compound: C1=CC=C2C(=C1)C3=NNC4=CC=CC(=C43)C2=O
Method in brief: as §1

[8] = compound: C1CCN(C1)C(=O)NC2=CC=CC(=C2)NC3=NC=C(C(=N3)NCCC4=CN=CN4)Br
Method in brief: as §1

[9] = compound: C1CN(CCC1(CC2=CC=C(C=C2)Cl)N)C3=NC=NC4=C3C=CN4
Method in brief: as §1

IRAK-1-4 Inhibitor I = compound: C1COCCN1CCN2C3=CC=CC=C3N=C2NC(=O)C4=CC(=CC=C4)[N+](=O)[O-] [IRAK-1-4 Inhibitor I]
Method in brief: as §1

ibrutinib = compound: C=CC(=O)N1CCC[C@@H](n2nc(-c3ccc(Oc4ccccc4)cc3)c3c(N)ncnc32)C1 [ibrutinib]
Method in brief: as §1

[10] = compound: CC(=O)c1cnc2ccc(-c3cc(Cl)c(O)c(Cl)c3)nc2c1N[C@H]1CC[C@H](CN(C)C)CC1
Method in brief: as §1

ralimetinib = compound: CC(C)(C)Cn1c(N)nc2ccc(-c3[nH]c(C(C)(C)C)nc3-c3ccc(F)cc3)nc21 [ralimetinib]
Method in brief: as §1

[11] = compound: CC(C)(O)CC(=O)NCCn1ccc2ncnc(Nc3ccc(Oc4cccc(C(F)(F)F)c4)c(Cl)c3)c21
Method in brief: as §1

[12] = compound: CC(C)C1=C2N=C(C=C(N2N=C1)NCC3=CC=CC=C3)NCCCCCCN
Method in brief: as §1

[13] = compound: CC(C)C[C@@H](C=O)NC(=O)[C@H](CC(C)C)NC(=O)[C@H](CC(C)C)NC(=O)OCc1ccccc1
Method in brief: as §1

pinometostat = compound: CC(C)N(C[C@H]1O[C@@H](n2cnc3c(N)ncnc32)[C@H](O)[C@@H]1O)[C@H]1C[C@@H](CCc2nc3cc(C(C)(C)C)ccc3[nH]2)C1 [pinometostat]
Method in brief: as §1

[14] = compound: CC1=C(C(CC(=O)N1)C2=CC=C(C=C2)C(F)(F)F)C(=O)NC3=C(C=C4C(=C3)C=NN4)F
Method in brief: as §1

[15] = compound: CC1=C(C2=C(C=C1)C(=O)C3=CC=CC=C3N2CCCN)C
Method in brief: as §1

Measured: log2 fold change

PRKAG2 (UniProt Q9UGJ0)
inactive: erlotinib -0.009 | [1] 0.045 | [2] 0.033 | [3] 0.006 | [4] -0.023 | [5] 0.021 | [6] 0.019 | [7] 0.051 | [8] 0.02 | [9] 0.016 | IRAK-1-4 Inhibitor I 0.003 | ibrutinib -0.052 | [10] -0.204 | ralimetinib -0.052 | [11] -0.016 | [12] -0.053 | [13] -0.008 | pinometostat -0.001 | [14] 0.03 | [15] -0.038

PRMT6 (UniProt Q96LA8)
inactive: erlotinib 0.023 | [1] 0.041 | [2] 0.121 | [3] 0.023 | [4] 0.066 | [5] 0.006 | [6] 0.125 | [7] 0.005 | [8] 0.04 | [9] 0.005 | IRAK-1-4 Inhibitor I -0.07 | ibrutinib -0.058 | [10] 0.034 | ralimetinib 0.015 | [11] -0.057 | [12] -0.014 | [13] 0.022 | pinometostat -0.185 | [14] -0.042 | [15] 0.157

PRKCI (UniProt P41743)
inactive: erlotinib -0.001 | [1] 0.077 | [2] -0.095 | [3] 0.079 | [4] -0.003 | [5] 0.056 | [6] -0.002 | [7] 0.003 | [8] -0.007 | [9] -0.073 | IRAK-1-4 Inhibitor I 0.009 | ibrutinib 0.009 | [10] -0.091 | ralimetinib -0.006 | [11] 0.004 | [12] -0.045 | [13] 0.035 | pinometostat 0.034 | [14] 0.026 | [15] 0.001

PPP6R2 isoform 5 (UniProt O75170)
inactive: erlotinib 0.017 | [1] -0.006 | [2] 0.038 | [3] -0.037 | [4] -0.017 | [5] 0.048 | [6] 0.02 | [7] 0.016 | [8] 0.009 | [9] -0.004 | IRAK-1-4 Inhibitor I 0.014 | ibrutinib -0.015 | [10] 0.036 | ralimetinib -0.025 | [11] -0.028 | [12] 0.045 | [13] 0.034 | pinometostat 0.024 | [14] -0.025 | [15] -0.011

PRCC (UniProt Q92733)
inactive: erlotinib 0.01 | [1] -0.115 | [2] -0.012 | [3] 0.01 | [4] 0.044 | [5] 0.047 | [6] -0.047 | [7] -0.085 | [8] -0.005 | [9] 0.078 | IRAK-1-4 Inhibitor I 0.049 | ibrutinib 0.04 | [10] -0.07 | ralimetinib -0.029 | [11] 0.027 | [12] 0.01 | [13] 0.025 | pinometostat -0.008 | [14] 0.011 | [15] -0.057

Pulled one by one from the list above (2):
PRCC (UniProt Q92733)
inactive: erlotinib 0.01 | [1] -0.115 | [2] -0.012 | [3] 0.01 | [4] 0.044 | [5] 0.047 | [6] -0.047 | [7] -0.085 | [8] -0.005 | [9] 0.078 | IRAK-1-4 Inhibitor I 0.049 | ibrutinib 0.04 | [10] -0.07 | ralimetinib -0.029 | [11] 0.027 | [12] 0.01 | [13] 0.025 | pinometostat -0.008 | [14] 0.011 | [15] -0.057

PRKCI (UniProt P41743)
inactive: erlotinib -0.001 | [1] 0.077 | [2] -0.095 | [3] 0.079 | [4] -0.003 | [5] 0.056 | [6] -0.002 | [7] 0.003 | [8] -0.007 | [9] -0.073 | IRAK-1-4 Inhibitor I 0.009 | ibrutinib 0.009 | [10] -0.091 | ralimetinib -0.006 | [11] 0.004 | [12] -0.045 | [13] 0.035 | pinometostat 0.034 | [14] 0.026 | [15] 0.001

Further results

PRMT5 (UniProt O14744)
inactive: erlotinib 0 | [1] 0.001 | [2] 0.019 | [3] -0.011 | [4] 0.02 | [5] -0.018 | [6] 0.008 | [7] 0.019 | [8] 0.019 | [9] 0.011 | IRAK-1-4 Inhibitor I 0.009 | ibrutinib 0.007 | [10] -0.075 | ralimetinib -0.06 | [11] -0.035 | [12] 0.003 | [13] -0.051 | pinometostat -0.012 | [14] -0.003 | [15] 0.064

PPP4R3A (UniProt Q6IN85)
inactive: erlotinib -0.015 | [1] 0.032 | [2] -0.025 | [3] 0.028 | [4] 0.046 | [5] 0.043 | [6] -0.073 | [7] 0.004 | [8] 0.014 | [9] 0.021 | IRAK-1-4 Inhibitor I 0.016 | ibrutinib -0.042 | [10] -0.023 | ralimetinib -0.129 | [11] 0.075 | [12] -0.032 | [13] 0.025 | pinometostat -0.017 | [14] -0.033 | [15] -0.066

PRKDC (UniProt P78527)
inactive: erlotinib -0.038 | [1] 0.086 | [2] 0.08 | [3] -0.012 | [4] 0.025 | [5] 0.001 | [6] 0.029 | [7] 0.006 | [8] -0.001 | [9] 0.018 | IRAK-1-4 Inhibitor I 0.011 | ibrutinib -0.038 | [10] -0.082 | ralimetinib -0.028 | [11] -0.064 | [12] 0.01 | [13] -0.022 | pinometostat -0.018 | [14] -0.004 | [15] 0.113

PRKRIP1 (UniProt Q9H875)
inactive: erlotinib -0.006 | [1] -0.002 | [2] -0.007 | [3] 0.053 | [4] -0.092 | [5] 0.105 | [6] 0.016 | [7] -0.027 | [8] 0.011 | [9] 0.021 | IRAK-1-4 Inhibitor I -0.013 | ibrutinib -0.029 | [10] 0.114 | ralimetinib 0.02 | [11] 0.069 | [12] 0.153 | [13] -0.031 | pinometostat -0.005 | [14] 0.002 | [15] 0.064

PPP1R11 (UniProt O60927)
inactive: erlotinib -0.019 | [1] -0.12 | [2] -0.047 | [3] 0.02 | [4] -0.089 | [5] 0.064 | [6] -0.119 | [7] -0.081 | [8] 0.014 | [9] 0.102 | IRAK-1-4 Inhibitor I 0.01 | ibrutinib 0.017 | [10] 0.012 | ralimetinib -0.075 | [11] -0.027 | [12] 0.134 | [13] 0.035 | pinometostat -0.066 | [14] 0.113 | [15] -0.106

PRKCSH isoform 2 (UniProt P14314)
inactive: erlotinib 0.007 | [1] -0.035 | [2] 0.105 | [3] -0.08 | [4] -0.131 | [5] 0.088 | [6] 0.019 | [7] -0.019 | [8] -0.025 | [9] -0.186 | IRAK-1-4 Inhibitor I -0.03 | ibrutinib 0.017 | [10] -0.056 | ralimetinib 0.097 | [11] -0.05 | [12] 0.152 | [13] -0.021 | pinometostat 0.072 | [14] 0.064 | [15] -0.145

PPP1R14B (UniProt Q96C90)
inactive: erlotinib 0.027 | [1] 0.026 | [2] 0.046 | [3] -0.02 | [4] -0.263 | [5] -0.076 | [6] 0.062 | [7] 0.18 | [8] -0.261 | [9] 0.038 | IRAK-1-4 Inhibitor I 0.022 | ibrutinib -0.144 | [10] 0.036 | ralimetinib 0.012 | [11] 0.194 | [12] 0.035 | [13] -0.149 | pinometostat -0.161 | [14] 0.017 | [15] -0.095

PPP1CC isoform 2 (UniProt P36873)
inactive: erlotinib 0.003 | [1] 0.033 | [2] -0.003 | [3] -0.002 | [4] 0.004 | [5] 0.031 | [6] 0.022 | [7] -0.046 | [8] -0.016 | [9] -0.034 | IRAK-1-4 Inhibitor I 0.023 | ibrutinib 0.033 | [10] 0.006 | ralimetinib -0.024 | [11] 0.014 | [12] 0.03 | [13] -0.025 | pinometostat -0.009 | [14] 0.18 | [15] 0.009

PPP2R1A (UniProt P30153)
inactive: erlotinib 0.006 | [1] 0.027 | [2] 0.068 | [3] 0.014 | [4] 0.003 | [5] 0.02 | [6] 0.023 | [7] 0.009 | [8] 0.015 | [9] -0.001 | IRAK-1-4 Inhibitor I 0.027 | ibrutinib -0.011 | [10] 0.008 | ralimetinib -0.046 | [11] -0.033 | [12] -0.02 | [13] -0.031 | pinometostat -0.03 | [14] -0.021 | [15] 0.02

PRRC2A (UniProt P48634)
inactive: erlotinib -0.037 | [1] -0.115 | [2] -0.241 | [3] 0.021 | [4] -0.028 | [5] 0 | [6] -0.035 | [7] -0.033 | [8] 0.018 | [9] -0.077 | IRAK-1-4 Inhibitor I -0.098 | ibrutinib -0.003 | [10] 0.083 | ralimetinib 0.118 | [11] 0.082 | [12] 0.009 | [13] 0.084 | pinometostat 0.168 | [14] 0.006 | [15] -0.002

PRMT1 (UniProt Q99873)
inactive: erlotinib -0.028 | [1] 0.06 | [2] 0.087 | [3] -0.021 | [4] 0.016 | [5] -0.002 | [6] 0.06 | [7] -0.004 | [8] 0.033 | [9] 0.024 | IRAK-1-4 Inhibitor I 0.055 | ibrutinib 0.009 | [10] 0.02 | ralimetinib -0.014 | [11] -0.083 | [12] 0.045 | [13] -0.033 | pinometostat 0 | [14] -0.001 | [15] 0.064
